Test results from PMC11490714.
No constants are given. Whether binding was seen depends on the method and setting. In cells and extracts the contact can be indirect. Some binding calls cover weakened binding; strength is not graded here. Where a sequence is shown, tags or fusion partners need not be part of it.

Experiments:
[1] = target: T1, FLAG-RBM39 (human) (UniProt Q14498); assay: co-IP; both partners overexpressed (FLAG- and HA-tagged) in HEK293T for 48 h, modified radioimmunoprecipitation assay buffer, anti-FLAG affinity gel, Western blot
T1 sequence: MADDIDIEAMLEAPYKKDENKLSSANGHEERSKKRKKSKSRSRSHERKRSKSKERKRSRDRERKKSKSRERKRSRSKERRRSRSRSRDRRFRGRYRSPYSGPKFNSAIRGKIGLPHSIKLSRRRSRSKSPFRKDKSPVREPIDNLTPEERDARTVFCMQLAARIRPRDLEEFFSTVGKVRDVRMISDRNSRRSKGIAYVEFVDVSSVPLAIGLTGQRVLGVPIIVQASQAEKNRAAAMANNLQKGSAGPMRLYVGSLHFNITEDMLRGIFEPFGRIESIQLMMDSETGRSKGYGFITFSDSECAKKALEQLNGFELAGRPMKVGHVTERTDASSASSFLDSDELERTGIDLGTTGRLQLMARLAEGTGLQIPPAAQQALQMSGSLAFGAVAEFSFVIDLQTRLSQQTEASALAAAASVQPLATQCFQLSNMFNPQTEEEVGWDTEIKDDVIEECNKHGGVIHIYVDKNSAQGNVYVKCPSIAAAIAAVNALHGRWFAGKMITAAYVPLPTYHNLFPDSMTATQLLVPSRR

[2] = target: T2, HA-RBM39 (human) (UniProt Q14498); assay: co-IP; FLAG-USP39 or HA-RBM39 expressed alone in HEK293T for 48 h; anti-FLAG affinity gel or anti-HA magnetic beads; endogenous partner detected by Western blot
T2 sequence: T1 sequence

[3] = target: T3, FLAG-USP39 (human) (UniProt Q53GS9); assay: co-IP; both partners overexpressed (FLAG- and HA-tagged) in HEK293T for 48 h, modified radioimmunoprecipitation assay buffer, anti-FLAG affinity gel, Western blot
T3 sequence: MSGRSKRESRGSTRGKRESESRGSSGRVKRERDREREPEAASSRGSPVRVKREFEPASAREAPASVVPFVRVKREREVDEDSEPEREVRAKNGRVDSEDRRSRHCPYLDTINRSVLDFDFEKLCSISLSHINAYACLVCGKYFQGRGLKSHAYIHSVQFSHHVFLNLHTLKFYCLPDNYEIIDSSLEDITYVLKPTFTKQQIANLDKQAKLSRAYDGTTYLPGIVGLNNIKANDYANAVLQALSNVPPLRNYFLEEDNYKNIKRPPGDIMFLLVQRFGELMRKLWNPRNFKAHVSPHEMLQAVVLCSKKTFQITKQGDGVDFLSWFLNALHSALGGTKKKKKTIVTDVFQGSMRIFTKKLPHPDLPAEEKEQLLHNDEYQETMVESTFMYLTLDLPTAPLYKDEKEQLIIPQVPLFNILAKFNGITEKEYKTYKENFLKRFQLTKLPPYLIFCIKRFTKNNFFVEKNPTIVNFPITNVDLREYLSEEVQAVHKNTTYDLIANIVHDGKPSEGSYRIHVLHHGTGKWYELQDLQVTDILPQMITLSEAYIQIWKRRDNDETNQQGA

B1: HA-USP39 (enzyme, UniProt Q53GS9 1-565)
chain: T3 sequence
In the case of B1, the binding [1] is reported as “binds”.

B2: endogenous USP39 (enzyme, UniProt Q53GS9 1-565)
chain: T3 sequence
B2 was tested, and the binding [2] was “binds”.

B3: HA-RBM39 N-terminal domain (aa 1-147) (domain or fragment, UniProt Q14498 1-147)
chain: MADDIDIEAMLEAPYKKDENKLSSANGHEERSKKRKKSKSRSRSHERKRSKSKERKRSRDRERKKSKSRERKRSRSKERRRSRSRSRDRRFRGRYRSPYSGPKFNSAIRGKIGLPHSIKLSRRRSRSKSPFRKDKSPVREPIDNLTP
B3 was tested, and the binding [3] was “binds”.
